Article PMC10552892, “Ebselen oxide and derivatives are new allosteric HER2 inhibitors for HER2‐positive cancers” (Molecular Oncology, 2023)

Target: T1, biotinylated peptide derived from HER2 cytosolic juxtamembrane region (human)
T1 sequence (peptide, biotin (position not stated)): ILIKRRQQKIRKYTMRRL

binding: binds
Substance: N-terminal FERM domain of ezrin, GST fusion (domain or fragment)

Results are given in words; binding and its absence hold for the method and conditions named. Binding can be weak; no strength is given.
